Data: patent US9447449B2, “Recombinant mycobacteriophages for delivery of nucleic acids of interest into mycobacteria” (Albert Einstein College of Medicine of Yeshiva University, priority 2011, dated 2016)
For at least one compound, name, drawing or mass did not settle the structure. Some results were stated once for a whole list of compounds, not compound by compound.

Key:
[1] = system: M. tuberculosis in clinical sputum samples; assay type: cell-based
M. tuberculosis mc^26230 = assay type: cell-based

NC[C@H]1O[C@H](O[C@H]2[C@H](O)[C@@H](O[C@H]3O[C@H](CO)[C@@H](O)[C@H](N)[C@H]3O)[C@H](N)C[C@@H]2N)[C@H](O)[C@@H](O)[C@@H]1O [kanamycin]
DST result of clinical M. tuberculosis strains [1]: sensitive | percent fluorescent population with longer incubation in presence of drug (M. tuberculosis mc^26230): does not significantly decrease | remaining cells just above the cut-off level on the FACS plot (M. tuberculosis mc^26230): 10-15%

CC1COc2c(N3CCN(C)CC3)c(F)cc3c(=O)c(C(=O)O)cn1c23 (centres unmarked) [ofloxacin]
effect of 18 hr pre-treatment prior to phage addition on DST signal (M. tuberculosis mc^26230): increased the signal differences in DST | six hour pre-incubation to determine drug sensitivity (M. tuberculosis mc^26230): not sufficient

CO[C@H]1/C=C/O[C@@]2(C)Oc3c(C)c(O)c4c(O)c(c(/C=N/N5CCN(C)CC5)c(O)c4c3C2=O)NC(=O)/C(C)=C\C=C\[C@H](C)[C@H](O)[C@@H](C)[C@@H](O)[C@@H](C)[C@H](OC(C)=O)[C@@H]1C [rifampicin]
DST result of clinical M. tuberculosis strains [1]: sensitive | percent fluorescent population with longer incubation in presence of drug (M. tuberculosis mc^26230): does not significantly decrease | remaining cells just above the cut-off level on the FACS plot (M. tuberculosis mc^26230): 10-15%
